Assay results: patent publication CN114478785A
These are yes or no findings as the source states them, for the method shown. Some results given as binding are weak or reduced against the parent protein; the word gives no strength.

Amino acid sequences for entries named in this document (tags omitted). Residues count along the entry.
UniProt P36222, residues 22-383: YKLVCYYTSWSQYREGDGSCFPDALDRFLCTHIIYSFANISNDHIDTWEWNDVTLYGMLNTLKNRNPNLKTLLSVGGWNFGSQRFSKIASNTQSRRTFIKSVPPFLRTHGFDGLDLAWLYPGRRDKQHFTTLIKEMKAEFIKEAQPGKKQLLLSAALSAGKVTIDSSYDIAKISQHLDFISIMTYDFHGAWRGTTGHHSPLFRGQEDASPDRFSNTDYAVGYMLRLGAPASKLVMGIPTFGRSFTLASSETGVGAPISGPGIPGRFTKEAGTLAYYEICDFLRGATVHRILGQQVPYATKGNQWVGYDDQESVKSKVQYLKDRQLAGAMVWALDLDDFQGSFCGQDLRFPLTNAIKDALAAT

Assays:
[1] = target: 重组CHI3L1蛋白 (壳多糖酶3样蛋白1, chitinase-3-like protein 1) (human) (UniProt P36222); assay: indirect ELISA screening of hybridoma clones
[2] = target: 重组CHI3L1蛋白 (壳多糖酶3样蛋白1, chitinase-3-like protein 1) (human) (UniProt P36222); assay: sandwich chemiluminescence on CHI3L1 standards, CHI-Ab1 as coating antibody

- binding [1]: binds
- binding [2]: binds
B1: 抗人CHI3L1鼠源单克隆抗体 CHI-Ab1 (antibody, V domains shown)
VH: QVQLQQSGTELVKPGASVRLSCTASGFNIKDSYMHWVRQRPDQRLDWIGRIDPSNGNTKYDPKFQGKATITADTSSNTAYLHLSSLTSEDTAVYYCAKDVYWGQGTLVTVSA
VL: DIVMTQSPLSLPVSLGDQASISCRSSQSLVHSDGFTYLHWYLQKPGQPPKLLIYTISNRFSGVPDRVSGSGSGTDFTLKISRVEAEDLGIYFCSQTTHVPLTFGAGTKLELK
